Test results as given in PubChem BioAssay AID1919016 (Molecular Pharmacology Branch, DTP, NCI, 2023).
Several values for one entry are separate records, joined by “and”; a condition that tells them apart may be missing. The calls were made as follows: active = viability on the fitted dose curve at most 10% of control; inactive = the rest. Identical values can stand only once. This continues a long series; more values of the same kind are listed elsewhere.

Tested on: NCI-H196 complex spheroid growth, percent test/control
Assay: Anticancer human tumor NCI-H196 cell line growth inhibition [AhR];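 also: seven days of drug exposure starting three days after plating; 100% = DMSO vehicle control wells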
Settings: stronger effect = lower value
Text: Multicellular complex tumor spheroid response to aryl hydrocarbon receptor antagonists in combination with a variety of drugs and investigational agents in selected tumor cell lines
The current study was undertaken to assess response to aryl hydrocarbon receptor antagonists in combination with standard-of-care drugs and investigational agents in solid tumor complex spheroid models. Complex spheroids include a stromal component modeled by human endothelial cells (HUVEC) and fibroblasts modeled by human mesenchymal stem cells (MSCs). The concentration ranges selected for each drug and investigational agent were based upon clinically achievable concentrations if the clinical Cmax of the agent was known.
Compounds. The drugs and investigational agents: BAY 2416964 (NSC825713), GNF351 (NSC835774), CH-223191 (NSC835775), CPI-455 (NSC825282), aza-TdCyd (NSC777586), decitabine (NSC127716), belinostat (NSC758774), entinostat (NSC756642), pevonedistat (NSC761192), tazemetostat (NSC777109), talazoparib (NSC765396), olaparib (NSC753686), selinexor (NSC780203), nedisertib (M3814, NSC802822), bortezomib (NSC756655), venetoclax (NSC766270), doxorubicin (NSC123127), elimusertib (BAY189344, NSC800525), ceralasertib (AZD6738, NSC777638), TAK-243 (NSC785004), alisertib (NSC759677), etoposide (NSC141540), topotecan (NSC609699), eribulin (NSC707389), gemcitabine (NSC613327), carboplatin (NSC241240), cisplatin (NSC119875), and SN-38 (NSC673596) were obtained from the National Cancer Institute (NCI) Developmental Therapeutics Program Chemical Repository (32). The FDA-approved anticancer drug set is available from the Developmental Therapeutics Program at https://dtp.cancer.gov/organization/dscb/obtaining/available plates.htm. […] The stock solutions were prepared in dimethyl sulfoxide (DMSO, Sigma-Aldrich, St. Louis, MO, cat. D2650), except for the platinum compounds which were prepared in saline (Quality Biological, Gaithersburg, MD, cat. 114-055-101), at 800-fold the tested concentration and stored at -70 degrees C prior to their use. All drugs and investigational agents were tested over a range starting from a high concentration at or near the clinical Cmax and decreasing in half-log increments. If the clinical Cmax for an agent had not been determined, the highest concentration tested was 10 microM (Table 1).
Cell Culture. All cells were maintained in an incubator at 37 degrees C and 5% CO2 with 95% humidity. The PDC lines were cultured according to standard operating procedures established by the NCI PDMR (https://pdmr.cancer.gov). Briefly, all PDCs were thawed and cultured in Matrigel-coated flasks prepared with a working solution of 1X Ham's F-12 nutrient mix, without supplementation (Invitrogen, Waltham, MA, cat. 11765054), 100 U/mL penicillin-streptomycin (Invitrogen, cat. 15140122), and 2.5% Matrigel (Corning Inc., Corning, NY, cat. 354248) for the first three passages. All PDCs were cultured in complete DMEM/F-12 media containing advanced DMEM/F-12 (Invitrogen, cat. 12634028), 4.9% defined fetal bovine serum, heat inactivated (HyClone Laboratories Inc., Logan, UT, cat. SH30070.03HI), 389 ng/mL hydrocortisone (Sigma-Aldrich, cat. H4001), 9.7 ng/mL human EGF recombinant protein (Invitrogen, cat. PHG0313), 23.4 microg/mL adenine (Sigma-Aldrich, cat. A2786), 97.3 U/mL penicillin-streptomycin (Invitrogen, cat. 15140122), 1.9 mM L-glutamine (Invitrogen, cat. 25030081), and 9.7 microM Y-27632 dihydrochloride (Tocris Bioscience, Bristol, United Kingdom, cat. 1254). The PDCs were cultured in complete DMEM/F12 media without 10 microM Y-27632 dihydrochloride for at least two passages prior to the screen. The established cell lines NCI-H1341 and […] were cultured in DMEM/F-12, HEPES (Invitrogen, cat. 11330032), 5% defined fetal bovine serum (HyClone Laboratories Inc., cat. SH30070.03), ITS premix universal culture supplement [insulin (5 microg/mL), transferrin (5 microg/mL), and selenious acid (5 ng/mL)] […]

Measured: viability, T/C

Cc1ccccc1N=Nc1ccc(NC(=O)c2ccnn2C)c(C)c1
inactive: compound 0.1 µM 97.5% [middle of 5 runs] | compound 0.316 µM 102% [middle of 4 runs] | compound 1 µM 94.6% [middle of 4 runs] | compound 3.16 µM 99.8% and 82.7% | compound 10 µM 89.6% [middle of 5 runs]

Cc1cncc(-c2nc(NCCc3c[nH]c4ccccc34)c3ncn(C(C)C)c3n2)c1
inactive: compound 0.316 µM 96.6% [middle of 5 runs] | compound 1 µM 110% and 86.1% | compound 3.16 µM 85.3% and 117% and 99.9% | compound 10 µM 90.9% and 71.2% (2×) and 86.2%

CC(CO)NC(=O)c1cc(-c2ccc(Cl)cc2)nn(-c2cnn(C)c2)c1=O (centres undefined)
inactive: compound 0.1 µM 115% and 95.5% | compound 0.316 µM 99.2% and 96.4% | compound 1 µM 86.1% and 114% | compound 3.16 µM 99.2% and 123% | compound 10 µM 94.9% and 121%
